From publication PMC3305409, “Naloxone inhibits immune cell function by suppressing superoxide production through a direct interaction with gp91^phox subunit of NADPH oxidase” (2012)
Where two headings read alike, the source gives them in different places.

Amino acid sequences for entries named in this document (tags omitted). Residues count along the entry.
UniProt Q61093, 2-570: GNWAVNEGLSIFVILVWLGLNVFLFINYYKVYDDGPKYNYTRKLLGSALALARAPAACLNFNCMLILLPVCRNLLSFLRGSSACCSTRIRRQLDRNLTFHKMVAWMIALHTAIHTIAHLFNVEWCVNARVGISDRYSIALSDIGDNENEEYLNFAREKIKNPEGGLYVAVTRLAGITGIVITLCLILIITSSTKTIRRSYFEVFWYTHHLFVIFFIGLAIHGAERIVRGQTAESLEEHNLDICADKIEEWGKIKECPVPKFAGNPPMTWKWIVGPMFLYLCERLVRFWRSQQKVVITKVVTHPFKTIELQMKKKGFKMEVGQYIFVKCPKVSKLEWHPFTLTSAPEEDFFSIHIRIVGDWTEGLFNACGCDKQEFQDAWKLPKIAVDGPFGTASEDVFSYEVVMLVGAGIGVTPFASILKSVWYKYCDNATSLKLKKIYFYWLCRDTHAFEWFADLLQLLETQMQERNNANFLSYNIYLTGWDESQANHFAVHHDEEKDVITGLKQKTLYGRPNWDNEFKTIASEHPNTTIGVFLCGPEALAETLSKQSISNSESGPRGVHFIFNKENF

Key:
[1] = target: T1, gp91phox (catalytic membrane subunit of NADPH oxidase, NOX2) (Mus musculus, UniProt Q61093); assay: cell-based
T1 construct: gene Cybb

[2] = target: T1, gp91phox (catalytic membrane subunit of NADPH oxidase, NOX2); assay: cell-based; remark: listed apart in the source

Compound | IC50 [1] [nM] | IC50 [2] [nM]
C=CCN1CC[C@]23c4c5ccc(O)c4O[C@H]2C(=O)CC[C@@]3(O)[C@H]1C5 [(+)-naloxone] | 1570 | –
C=CCN1CC[C@]23c4c5ccc(O)c4O[C@H]2C(=O)CC[C@@]3(O)[C@H]1C5 [(-)-naloxone] | – | 2730
